# According to PubChem BioAssay AID504467 (National Center for Advancing Translational Sciences (NCATS), 2011):
# Among all 330,000 compounds or so, about 7,700 (2.3%) were called active. The inconclusive results got no clear call from the source; some entries with a clear call stand among them for comparison. Calls follow the shape of the dose curve; as a rule, active = well fitted inhibition curve with a large enough effect; inconclusive = small, poorly fitted or top-dose-only effect, or effect the other way; inactive = flat fitted curve, though single readings scatter. Where the call is inconclusive, the potency comes from a doubtful curve fit.
# Test: qHTS screen for small molecules that inhibit ELG1-dependent DNA repair in human embryonic kidney (HEK293T) cells expressing luciferase-tagged ELG1; also: nearly all actives have a fitted effect of over 55% in size
# Conditions: HEK293T ELG1-luciferase reporter, luminescence, 16 h, DNA damage induced by 5-fluorouridine; series mostly up to 46.1 µM
# How it was run: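 Cells (2,000 per well) received 5-fluorouridine plus test compound or DMSO and were incubated 16 hr at 37 °C, 5% CO2. Luciferase activity was read by luminescence 30 min after ONE-Glo addition; signal suppression marked inhibition of damage-induced ELG1 function.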
# Potency is read from the fitted curve at half-maximal effect.
row,SMILES,Potency
1,CCOc1ccc(S(=O)(=O)N2CCC(C(=O)NCc3ccncc3)CC2)cc1C,"inconclusive: 13 µM [inhibitor, partial curve, poor fit]"
2,OC(CNCC(c1ccc(Cl)cc1Cl)c1c[nH]c2ccccc12)c1ccccc1 (stereo not given),"inconclusive: 16.4 µM [inhibitor, single point]"
3,Cc1cccc(N2CCN(C(=O)CCCOc3ccccc3)CC2)c1C,"inconclusive: 2.91 µM [activator, partial curve]"
4,CC1CCN(S(=O)(=O)c2ccc(C(=O)Nc3ncccc3O)cc2)CC1,inactive
5,Cc1cccc(NS(=O)(=O)c2ccc(C3CCCCC3)cc2)c1,inactive
6,O=C(NNC(=O)c1ccccc1O)c1ccc(NS(=O)(=O)c2ccc(F)c(F)c2)cc1,inactive
7,COc1cc([N+](=O)[O-])ccc1NC(=O)CN(C)C,inactive
8,CCCCN1C(=O)c2ccc(C(=O)NCCN3C(=O)S/C(=C\c4cccnc4)C3=O)cc2C1=O,"inconclusive: 25.9 µM [inhibitor, single point]"
9,Cc1ccc(S(=O)(=O)N(CCC(=O)NCc2ccccc2F)c2ccccc2)cc1,"inconclusive: 5.8 µM [inhibitor, single point]"
10,O=C1CN(C(=O)COc2ccccc2Cl)c2ccccc2N1,"inconclusive: 25.9 µM [activator, partial curve, poor fit]"
11,Cn1c(C(=O)N2CCN(c3ccc(F)cc3)CC2)cc2ccccc21,"inconclusive: 0.103 µM [inhibitor, partial curve, poor fit]"
12,O=c1cc(-c2ccccc2)oc2ccc(O)cc12,"inconclusive: 10.3 µM [activator, partial curve]"
13,Fc1ccc(Oc2ncccn2)c(F)c1,inactive
14,COc1ccc(OCC(=O)NNc2c3ccccc3nc3ccccc23)cc1,"inconclusive: 16.4 µM [inhibitor, partial curve]"
15,O=C(CC1(O)C(=O)N(C/C=C/c2ccccc2)c2ccccc21)c1ccccn1 (stereo not given),inactive
16,O=C(Nc1ccccc1N1CCOCC1)c1ccc(Cl)c(S(=O)(=O)NCc2ccco2)c1,active: 16.4 µM
17,O=C(CCCOc1ccc(Br)cc1)Nc1ccc(S(=O)(=O)N2CCOCC2)cc1,"inconclusive: 10.3 µM [inhibitor, single point]"
18,CCOc1ccccc1NC(=O)N1CCC(n2nnc3cc(C)ccc32)CC1,"inconclusive: 35.5 µM [inhibitor, single point]"
19,Cc1cc(C)nc(Nc2ccc(O)cc2)n1,inactive
20,C/C(=N\OC(=O)c1cccc(Cl)c1)c1sc(C)nc1C,inactive
21,O=C(Nc1cccnc1)OC1CCCC1,"inconclusive: 23.1 µM [activator, partial curve]"
22,CCOc1cc(/C=N/NC(=O)C2CC2)ccc1OC(C)C,inactive
23,COCCNC(=O)CSC1=N/C(=C/c2ccc(Cl)c(Cl)c2)C(=O)N1c1ccccc1F,"inconclusive: 32.6 µM [inhibitor, single point]"

row,SMILES,Potency
1,CCN(CC)CCCN(C(=O)c1ccco1)c1nc(-c2ccc(C)cc2)cs1,inactive
2,CN(C)C(=S)Nc1cccc(C(F)(F)F)c1,inactive
3,O=C(c1cc(S(=O)(=O)N2CCOCC2)ccc1Cl)N1CCN(c2ccccn2)CC1,inactive
4,CC1(C)CC(=O)C(C(C#Cc2ccccc2)C2=C(O)CC(C)(C)CC2=O)=C(O)C1,inactive
5,CC(=O)Nc1cccc(C(=O)OCC(=O)c2ccc3c(c2)OCO3)c1,"inconclusive: 0.651 µM [activator, full curve]"
6,Cc1cc([N+](=O)[O-])ccc1-c1ccc(/C=N/NC(=O)Cc2ccccc2)o1,"inconclusive: 32.6 µM [inhibitor, single point]"
7,COc1ccc(NC(=S)SC)cc1OC,"inconclusive: 32.6 µM [inhibitor, single point]"
8,Cc1ccc(S(=O)(=O)N2CCC(=O)N(CCOC(=O)Nc3cc(C)cc(C)c3)CC2)cc1,inactive
9,Cc1nc(N2CCN(C(=O)c3ccco3)CC2)nc2c1C(=O)CCC2,"inconclusive: 0.366 µM [activator, full curve]"
10,COc1ccc2c(c1)C=C(CN1CCC(CO)(CCc3ccccc3)CC1)CO2,"inconclusive: 14.6 µM [inhibitor, single point]"
11,Cn1c(/C(C#N)=C/c2ccc(-c3ccc(S(N)(=O)=O)cc3)o2)nc2ccccc21,"inconclusive: 3.66 µM [inhibitor, single point]"
12,Cc1ccc(/C=C/C(=O)Nc2cc(S(=O)(=O)N3CCCCCC3)ccc2OCC(F)(F)F)o1,"inconclusive: 16.4 µM [inhibitor, partial curve, poor fit]"
13,CC(/C=N/NC(=O)c1cc(C(C)C)[nH]n1)=C\c1ccccc1,"inconclusive: 18.4 µM [inhibitor, partial curve]"
14,CCN(C(=O)COC(=O)c1cn(-c2ccccc2)nc1-c1ccccc1)C1CCS(=O)(=O)C1 (stereo not given),inactive
15,CCCCCc1nc2sc3c(c2c(=O)n1NC(=O)c1ccc([N+](=O)[O-])cc1)CC(C)(C)OC3,"inconclusive: 29.1 µM [inhibitor, single point]"
16,COc1cc(/C=N/NC(=O)c2cc(-c3ccccc3OC(C)C)nc3ccccc23)ccc1O,"inconclusive: 29.1 µM [inhibitor, single point]"
17,C/C(Cc1ccccc1)=N\NC(=O)CNC(=O)c1ccc(Cl)cc1,"inconclusive: 29.1 µM [activator, single point]"
18,NC(=O)C1Cc2ccccc2CN1C(=O)c1cc(C2CC2)nn1-c1ccccc1 (stereo not given),"inconclusive: 4.61 µM [inhibitor, partial curve, poor fit]"
19,CCCn1nc(NS(=O)(=O)c2ccccc2)c2cc3ccccc3nc21,inactive
20,COc1ccccc1C(CC(=O)Nc1ccccc1C)c1ccc(OC(C)C)cc1 (stereo not given),"inconclusive: 13 µM [inhibitor, partial curve]"
21,CN(C(=O)c1cccc(NC(=O)Cc2ccc([N+](=O)[O-])cc2)c1)C1CCCCC1,"inconclusive: 25.9 µM [inhibitor, partial curve, poor fit]"
22,CC(C)Cn1c(N)c(C(=O)CSc2cc(Cl)ccc2Cl)c(=O)n(C)c1=O,"inconclusive: 1.84 µM [inhibitor, full curve]"

# Random excerpt: 2 compounds from above
row,SMILES,Potency
6,Cc1cc([N+](=O)[O-])ccc1-c1ccc(/C=N/NC(=O)Cc2ccccc2)o1,"inconclusive: 32.6 µM [inhibitor, single point]"
13,CC(/C=N/NC(=O)c1cc(C(C)C)[nH]n1)=C\c1ccccc1,"inconclusive: 18.4 µM [inhibitor, partial curve]"
